Some of the results follow.

By UniProt entry, the sequences of proteins in these tests, tags left out.
UniProt Q0JBA9, entry or part of it: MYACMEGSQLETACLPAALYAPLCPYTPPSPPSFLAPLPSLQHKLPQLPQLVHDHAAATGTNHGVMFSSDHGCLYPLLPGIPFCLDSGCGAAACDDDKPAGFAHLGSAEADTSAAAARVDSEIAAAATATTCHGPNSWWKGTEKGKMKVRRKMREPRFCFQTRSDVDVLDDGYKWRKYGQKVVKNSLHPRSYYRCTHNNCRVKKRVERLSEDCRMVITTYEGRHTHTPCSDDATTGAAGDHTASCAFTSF

The assay concerns the target OsWRKY34 (Oryza sativa, UniProt Q0JBA9 1-250). The assay can be described thus: protein-binding microarray (RPBM); PBS, 2% BSA, 51.3 ng/ul salmon testes DNA, 50 uM zinc acetate, 200 nM TF, 25 C, 1 h; high values mean tight binding. Conditions: protein: recombinant; tags: N-terminal polyhistidine and DsRed monomer fusion (pET32a); label: CyDye5-dUTP incorporated in the synthesized complementary strand; 3' TTTTT single-stranded linker to array surface; dsDNA, one strand shown. In short, it runs like this: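 Polyhistidine-tagged DsRed fusions of transcription factors, joined at the N-terminus, were expressed in E. coli BL21-CodonPlus and isolated on Ni–NTA. They were incubated at 200 nM for 1 h at 25 °C on a custom Agilent array, double-stranded and BSA-blocked, in PBS with 2% BSA, salmon testes DNA and 50 µM zinc acetate. The binding signal is per-feature fluorescence intensity (arbitrary units) read on an Axon 4000B scanner after washing.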
Turning to “AGTGCATATGAATGTGTGTGTGTGTTTTTTTTGCGGGGAACGGAGTCACCTAGTGCAG”, the binding signal is 10700 fluorescence intensity (a.u.).

As to “TCTCTCCCTTGTCCTCTGTCTGAATTGCCCAGCAGGTCCACGGAGTCACCTAGTGCAG”, the binding signal is 8780 fluorescence intensity (a.u.).

Take “ATCCACAGCTGACGCCCCGATGCTCCACCACCACTCCAGCCGGAGTCACCTAGTGCAG”: the binding signal is 9350 fluorescence intensity (a.u.).

In the case of “ACCTACCACCACCTTACCCTCTCGCTGACATCCCGGCCCCCGGAGTCACCTAGTGCAG”, the binding signal was 12000 fluorescence intensity (a.u.).

With “ACTTGTCACATCACATCATCTTTCATTCATGTAACAACTTCGGAGTCACCTAGTGCAG”, the binding signal is 9290 fluorescence intensity (a.u.).

As to “TGTTTTTTTCCTATATTTAAATAGTGTGTTTTTCTTTTCTCGGAGTCACCTAGTGCAG”, the binding signal is 12700 fluorescence intensity (a.u.).

In the case of “TCACTTCACAGATTCACACACACACACACACACACTCTCTCGGAGTCACCTAGTGCAG”, the binding signal was 8440 fluorescence intensity (a.u.).

With “CATTCTTTCGTTTGCGTGCGTGACTCTCCAAGTACTCCCTCGGAGTCACCTAGTGCAG”, the binding signal is 9220 fluorescence intensity (a.u.).

As to “TCCACTATGACTTATTTTGGTGTATCCCTACTTTTTAATCCGGAGTCACCTAGTGCAG”, the binding signal is 9280 fluorescence intensity (a.u.).

Regarding “CTTTGCTTACCATTGACTCCTTTTTCCATCCAAGCCTAAGCGGAGTCACCTAGTGCAG”, the binding signal is 10300 fluorescence intensity (a.u.).

Take “AGTCATTGCCATTGATCCTATGTCCTCTATTGATCTTTCTCGGAGTCACCTAGTGCAG”: the binding signal is 11100 fluorescence intensity (a.u.).

As for “GGCCGCACCACCATTCCACCCGTCCACCTCGTTGCCTCCGCGGAGTCACCTAGTGCAG”, the binding signal is 8690 fluorescence intensity (a.u.).

On to “TCCTTCATGCATCCATTGTACAAAGGTCGTTATTGAGAAACGGAGTCACCTAGTGCAG”, for which the binding signal was 9060 fluorescence intensity (a.u.).

For the sequence “CTCGTGCTGCTTCCACCCCTCCCTCGTCGCCTTGCCAGTTCGGAGTCACCTAGTGCAG”, the binding signal is 9440 fluorescence intensity (a.u.).

As for “CCCAACGCAAGTTCTTCCTGTCGCTTCACCTTCACGCAGCCGGAGTCACCTAGTGCAG”, the binding signal is 9940 fluorescence intensity (a.u.).

For the sequence “CTCATCTTGTCCTCTCTTTCTCCGTCGTCTTCCTTTACTGCGGAGTCACCTAGTGCAG”, the binding signal is 8450 fluorescence intensity (a.u.).

As for “TTTTCTTATTTAGATTCAAATTTTACCTCGGTTTTATGTTCGGAGTCACCTAGTGCAG”, the binding signal is 8540 fluorescence intensity (a.u.).

Turning to “ATCTGTAGCCCGCTGTTTTTCTCTCTCATTTTTTATCTCACGGAGTCACCTAGTGCAG”, the binding signal is 9840 fluorescence intensity (a.u.).

“AGGGTTTTGTTTTTTTAGATTTTATTTTTTTCGGCTTTTTCGGAGTCACCTAGTGCAG”: the binding signal is 10200 fluorescence intensity (a.u.).

Turning to “GTCATTCATTTGGGAAGCACCCGTTTGGCCAGTTCTTTTCCGGAGTCACCTAGTGCAG”, the binding signal is 10500 fluorescence intensity (a.u.).

In the case of “ATCACCCTGATTATCGTTTCTAAGCCATATTTAGCAAACTCGGAGTCACCTAGTGCAG”, the binding signal is 8650 fluorescence intensity (a.u.).

In the case of “ACTTTTTTGGTTTGTTCAGGCTTTGGAATAGGTTTTTAGGCGGAGTCACCTAGTGCAG”, the binding signal was 8140 fluorescence intensity (a.u.).

With “CCACTTCGTAGTCGTAGTTCAGCATATCAGCCACTCTTTCCGGAGTCACCTAGTGCAG”, the binding signal was 9050 fluorescence intensity (a.u.).

“TATTCACGCTGTAGATACTGTTATGTTCCAATTGTCACGGCGGAGTCACCTAGTGCAG”: the binding signal was 8700 fluorescence intensity (a.u.).

As to “TTTCTATATTGCATATCCTCCTAAAATATCTCGCGGTTGACGGAGTCACCTAGTGCAG”, the binding signal is 8350 fluorescence intensity (a.u.).

Turning to “TGCGAGTTCGTCGCCGCCTCCGCCGATCTCCATCAGGCGACGGAGTCACCTAGTGCAG”, the binding signal is 9610 fluorescence intensity (a.u.).

For the sequence “GGTCGCTGCCGCTATCAACACCAACAAACACCGCGCCTCGCGGAGTCACCTAGTGCAG”, the binding signal was 9850 fluorescence intensity (a.u.).

For “CCACAAACATATATGCCTTTTAAATGTTCCTACATGCAAGCGGAGTCACCTAGTGCAG”, the binding signal is 8260 fluorescence intensity (a.u.).

In the case of “CCCCTCGCCGGCCGTCGCGCTCTCGAAGCCGTACGCTGTTCGGAGTCACCTAGTGCAG”, the binding signal was 9210 fluorescence intensity (a.u.).

As for “ATCGAGCAGGTTTCCCCAAATCTTAGGGTTAGGGTTTCGTCGGAGTCACCTAGTGCAG”, the binding signal is 9810 fluorescence intensity (a.u.).

For the sequence “GTACCATTAATGCAATTTATTCATCATGTATAATACTATTCGGAGTCACCTAGTGCAG”, the binding signal was 8940 fluorescence intensity (a.u.).

“GTGTCTGAGTACTGTTATCCACCTGTAATATTTTGATTTTCGGAGTCACCTAGTGCAG”: the binding signal was 9200 fluorescence intensity (a.u.).

Take “TTTATTTTTTTTGTTACTTTTGGGATAAATTTACAATTACCGGAGTCACCTAGTGCAG”: the binding signal is 9060 fluorescence intensity (a.u.).

Consider “CCCACATCCATCTCCTCCATCTCACCAAACCAACACACCACGGAGTCACCTAGTGCAG”, for which the binding signal was 9180 fluorescence intensity (a.u.).

For the sequence “GCAGGTCCTCCATCAACGTCGCCGTACGTGTTCCGCCGGCCGGAGTCACCTAGTGCAG”, the binding signal is 8190 fluorescence intensity (a.u.).

For the sequence “CATCGCCCGCGCGCGCGCCCGCCTCGACGCCGCCGCCGCCCGGAGTCACCTAGTGCAG”, the binding signal is 10100 fluorescence intensity (a.u.).

On to “AAGACCACCGTCGACCTTTCCTCATCTCACCCGTCACTACCGGAGTCACCTAGTGCAG”, for which the binding signal was 10100 fluorescence intensity (a.u.).

Turning to “CTGGAAGCAACCAAAGATGGAGGATGGGGTTTTGTGGTACCGGAGTCACCTAGTGCAG”, the binding signal was 8180 fluorescence intensity (a.u.).

As for “AATCGCCGTTCTAGCTTTTTGGTCTTGGTCTTTTTTTATCCGGAGTCACCTAGTGCAG”, the binding signal is 21400 fluorescence intensity (a.u.).

On to “CCTAAATGGTTTTGCTTGGACACTTCTGGTTACCTTGCATCGGAGTCACCTAGTGCAG”, for which the binding signal is 11900 fluorescence intensity (a.u.).

As to “CTGAAGAGGCGGAGGGGTTGGGATCGAGGTAATTGGGGCTCGGAGTCACCTAGTGCAG”, the binding signal was 8890 fluorescence intensity (a.u.).

For the sequence “CTGACTGGGTAGGAGGAAGGTGGAGGTGGGGAGGATGCGGCGGAGTCACCTAGTGCAG”, the binding signal was 13600 fluorescence intensity (a.u.).

(Values after publication PMC7819943, “Rice protein-binding microarrays: a tool to detect cis-acting elements near promoter regions in rice”.)
